No constants are given. Whether binding was seen depends on the method and setting. Binding seen in cells or lysates may run through a third protein. Some results given as binding are weak or reduced against the parent protein; the word gives no strength.
Key:
[1] = target: T1, Aldo-keto reductase 1C3 (AKR1C3) (human (endogenous in VCaP, 22RV1, 22RV1 T and HEK293)) (UniProt P42330); experiment: co-IP; lysates of subcutaneous 22RV1 T xenografts (castrated nude mice) immunoprecipitated with AKR1C3 antibody on protein G beads; bound proteins analysed by Western blot
T1 sequence: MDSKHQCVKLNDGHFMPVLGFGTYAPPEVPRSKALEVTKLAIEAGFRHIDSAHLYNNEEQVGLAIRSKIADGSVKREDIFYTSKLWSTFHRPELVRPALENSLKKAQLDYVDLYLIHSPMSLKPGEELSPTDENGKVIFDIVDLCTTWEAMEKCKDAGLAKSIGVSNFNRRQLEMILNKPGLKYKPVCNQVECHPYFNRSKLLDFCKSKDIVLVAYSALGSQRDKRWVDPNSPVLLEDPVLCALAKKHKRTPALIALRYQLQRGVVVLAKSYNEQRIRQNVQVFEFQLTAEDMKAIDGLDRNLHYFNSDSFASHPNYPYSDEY

Chains of the proteins cited; added tags and fusions are not shown. Lines headed by an entry give the natural chain unless they say otherwise; changes in a name come on top.
UniProt P10275: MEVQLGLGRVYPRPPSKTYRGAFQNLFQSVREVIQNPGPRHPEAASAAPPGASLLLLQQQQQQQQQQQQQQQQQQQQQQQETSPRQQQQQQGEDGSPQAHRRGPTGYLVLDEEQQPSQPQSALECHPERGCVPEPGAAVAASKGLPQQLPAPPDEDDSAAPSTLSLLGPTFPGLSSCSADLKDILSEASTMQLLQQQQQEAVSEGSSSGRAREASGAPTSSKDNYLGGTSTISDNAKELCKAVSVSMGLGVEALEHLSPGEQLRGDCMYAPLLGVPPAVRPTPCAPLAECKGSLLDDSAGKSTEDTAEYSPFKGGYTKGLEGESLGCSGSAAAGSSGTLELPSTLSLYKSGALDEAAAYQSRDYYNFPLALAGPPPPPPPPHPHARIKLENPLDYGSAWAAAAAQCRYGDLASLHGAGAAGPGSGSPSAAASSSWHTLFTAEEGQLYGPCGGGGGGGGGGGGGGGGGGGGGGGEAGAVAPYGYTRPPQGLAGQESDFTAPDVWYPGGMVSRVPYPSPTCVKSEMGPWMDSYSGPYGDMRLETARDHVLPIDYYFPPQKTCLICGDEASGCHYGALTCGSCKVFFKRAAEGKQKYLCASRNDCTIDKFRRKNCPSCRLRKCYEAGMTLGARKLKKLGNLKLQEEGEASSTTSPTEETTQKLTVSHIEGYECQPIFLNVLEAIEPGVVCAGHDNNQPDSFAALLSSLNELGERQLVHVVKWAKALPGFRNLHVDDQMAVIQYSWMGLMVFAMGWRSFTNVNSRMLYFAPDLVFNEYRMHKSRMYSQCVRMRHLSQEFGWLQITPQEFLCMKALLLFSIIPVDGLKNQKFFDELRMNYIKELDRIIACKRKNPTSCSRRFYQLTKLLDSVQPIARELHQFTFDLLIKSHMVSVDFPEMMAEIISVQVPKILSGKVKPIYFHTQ

[2] = target: T1, Aldo-keto reductase 1C3 (AKR1C3) (human (endogenous in VCaP, 22RV1, 22RV1 T and HEK293)); experiment: co-IP; cell lysates of VCaP, 22RV1 (22RV1 T in the methods) and GFP-AR-V7 transfected HEK293 immunoprecipitated with AKR1C3 antibody on Dynabeads Protein G; bound proteins analysed by Western blot

| binding [1] | binding [2] | Substance |
| --- | --- | --- |
| binds | binds | Androgen receptor splice variant-7 (AR-V7), endogenous (from UniProt P10275-3 1-644) |
| binds | – | Full-length androgen receptor (AR-FL), endogenous (from UniProt P10275 1-920) |
| – | binds | GFP-AR-V7 fusion protein (from UniProt P10275-3 1-644) |
